Laboratory results published in the supplement of paper PMC7024190.
This is one part of the list. Single values are uncertain here, since repeats match poorly.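 Human embryonic kidney cells were transiently transfected with a plasmid bearing a Renilla luciferase gene under the HSV-TK promoter. This first-round screen tests roughly ten thousand compounds for ones that increase reporter output.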

System: HEK 293FT
Assay: log relative Renilla luciferase luminescence (reporter expression vs reference, reference not stated) (log (base not stated)); higher = higher recombinant reporter expression
Settings: 10 µM; time after transfection 48 h
Procedure: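 HEK 293FT cells transiently transfected with pRL-TK (Renilla luciferase) were treated with compounds at 10 uM and luminescence was read about 42 h later. Values are log relative Renilla luminescence (log base and reference not stated). Single-pass screen; 2080 natural products library.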

Row | Compound | log
1 | Oc1cc(O)cc([C@@H]2[C@H](c3ccc(O)cc3O)c3c(O)cc(O)cc3C[C@@H]2c2ccc(O)cc2O)c1 [Alboctalol] | -0.123
2 | O=C(OCC1=C[C@@H](O)[C@@H]2C=CO[C@@H](O[C@@H]3O[C@H](CO)[C@@H](O)[C@H](O)[C@H]3O)[C@H]12)c1ccc(O)cc1 [Agnuside] | -0.0185
3 | COc1cc(OC)c2c(c1)O[C@@]1(c3ccc(OC)c(OC)c3)[C@H](c3ccccc3)[C@@H](C(=O)N(C)C)[C@@H](O)[C@@]21O [3'-Methoxyrocaglamide] | -1.18
4 | C=C(C(=O)O)[C@H]1C=C2[C@@H](C)[C@@H](O)[C@H](O)C[C@]2(C)CC1 [2,3-Dihydroxypterodontic acid] | 0.212
5 | CC(=O)c1ccc(O)cc1 [4'-Hydroxyacetophenone] | -0.0581
6 | COc1cc(O)c2c(c1)O[C@H](c1ccccc1)CC2=O [Pinostrobin] | -0.111
7 | O=c1c(O)c(-c2ccccc2)oc2cc(O)cc(O)c12 [Galangin] | -0.0982
8 | COc1c(OC(C)=O)cc(O)c2c(=O)cc(-c3ccccc3)oc12 [5-Hydroxy-7-acetoxy-8-methoxyflavone] | 0.062
9 | C=C(C)[C@H](/C=C/[C@@H](C)[C@H]1CC[C@H]2[C@@H]3CC=C4C[C@@H](OC(C)=O)CC[C@]4(C)[C@H]3CC[C@]12C)CC [22-Dehydroclerosteryl acetate] | 0.0031
10 | CC(C)(O)[C@H]1CC[C@@](C)([C@H]2CC[C@]3(C)[C@@H]2CC[C@@H]2[C@@]4(C)CCC(=O)C(C)(C)[C@@H]4CC[C@]23C)O1 [Ocotillone] | -0.212
11 | Cc1c2c(cc3occ(C=O)c13)C(=O)CC[C@@H]2C [Viteralone] | -0.119
12 | CC(C)=C1CC[C@]2(C)CCC[C@](C)(O)[C@H]2C1 [enantio-7(11)-Eudesmen-4-ol] | 0.075
13 | COc1cc([C@H]2Oc3c(OC)cc4ccc(=O)oc4c3O[C@@H]2CO)ccc1O [Cleomiscosin A] | -0.0445
14 | COc1cc2c(cc1C(C)=O)C=CC(C)(C)O2 [Encecalin] | -0.0384
15 | C=CC(C)(C)c1c(O)cc2oc3c(CC=C(C)C)c(O)c(O)cc3c(=O)c2c1O [Cudraxanthone L] | 0.151
16 | CCCCCCCCCCCCCCCCCCCCCC[C@@H](O)C(=O)N[C@@H](CO)[C@H](O)[C@H](O)CCCCCCCCCCCCCC [2-(2'-Hydroxytetracosanoylamino)-octadecane-1,3,4-triol] | 0.114
17 | C/C(=C\C(=O)CC(C)C)[C@H]1CC=C(C(=O)O)CC1 [9-Oxo-2,7-bisaboladien-15-oic acid] | -0.00651
18 | C=C1C(=O)O[C@H]2C[C@@H]3[C@@]4(CC[C@]5(C)[C@H]([C@@H](C)CC/C=C(\C)C=O)CC[C@@]35C)C[C@]4(CCC(=O)OC)[C@@H]12 [Coronalolide methyl ester] | 0.0106
19 | COc1ccc([C@@H]2CC(=O)c3c(O)cc(O[C@@H]4O[C@H](CO[C@@H]5O[C@@H](C)[C@H](O)[C@@H](O)[C@H]5O)[C@@H](O)[C@H](O)[C@H]4O)cc3O2)cc1O [Hesperidin] | -0.15
20 | C=C1C(=O)O[C@H]2C[C@@]3(C)O[C@@H]3CC[C@@]3(C)O[C@@H]3C[C@H]12 [11(13)-Dehydroivaxillin] | -0.117
21 | C[C@@H]1C(=O)O[C@@H]2C[C@@]3(C)O[C@@H]3C[C@H](O)[C@@]3(C)O[C@@H]3C[C@H]12 [Carabrolactone A] | -0.0479
22 | CC[C@](C)(O)C(=O)N[C@H]1CCCN1C(=O)/C=C/c1ccccc1 [Odorinol] | 0.0737
23 | COc1ccc(O[C@@H]2O[C@H](CO)[C@@H](O)[C@H](O)[C@H]2O)cc1OC [3,4-Dimethoxyphenyl beta-D-glucoside] | -0.0867
24 | COc1cc(/C=C/CO)cc(OC)c1O[C@@H]1O[C@H](CO)[C@@H](O)[C@H](O)[C@H]1O [Syringin] | -0.259
25 | C[C@H](CC[C@H](O)[C@](C)(O)CO)[C@H]1CC[C@@]2(C)C3=CC[C@H]4C(C)(C)C(=O)CC[C@]4(C)C3=CC[C@]12C [Ganodermanontriol] | -0.29
26 | CC(C)=CCC/C(C)=C/CC/C(C)=C/CC/C=C(\C)CC/C=C(\C)CCC=C(C)C [Squalene] | -0.27
27 | C=C(C)[C@@H]1CC[C@]2(C(=O)OC)CC[C@]3(CO)[C@H](CC[C@@H]4[C@@]5(C)CC[C@@H](O)C(C)(C)[C@@H]5CC[C@]43C)[C@@H]12 [3,27-Dihydroxy-20(29)-lupen-28-oic acid methyl ester] | -0.074

2 successive entries already listed, for reference:
Row | Compound | log
22 | CC[C@](C)(O)C(=O)N[C@H]1CCCN1C(=O)/C=C/c1ccccc1 [Odorinol] | 0.0737
23 | COc1ccc(O[C@@H]2O[C@H](CO)[C@@H](O)[C@H](O)[C@H]2O)cc1OC [3,4-Dimethoxyphenyl beta-D-glucoside] | -0.0867
